# According to PMC4538849:
# The chains behind the UniProt entries cited, without tags or fusion partners. Residues count along the entry.
# UniProt Q8IXI1, residues 1-592: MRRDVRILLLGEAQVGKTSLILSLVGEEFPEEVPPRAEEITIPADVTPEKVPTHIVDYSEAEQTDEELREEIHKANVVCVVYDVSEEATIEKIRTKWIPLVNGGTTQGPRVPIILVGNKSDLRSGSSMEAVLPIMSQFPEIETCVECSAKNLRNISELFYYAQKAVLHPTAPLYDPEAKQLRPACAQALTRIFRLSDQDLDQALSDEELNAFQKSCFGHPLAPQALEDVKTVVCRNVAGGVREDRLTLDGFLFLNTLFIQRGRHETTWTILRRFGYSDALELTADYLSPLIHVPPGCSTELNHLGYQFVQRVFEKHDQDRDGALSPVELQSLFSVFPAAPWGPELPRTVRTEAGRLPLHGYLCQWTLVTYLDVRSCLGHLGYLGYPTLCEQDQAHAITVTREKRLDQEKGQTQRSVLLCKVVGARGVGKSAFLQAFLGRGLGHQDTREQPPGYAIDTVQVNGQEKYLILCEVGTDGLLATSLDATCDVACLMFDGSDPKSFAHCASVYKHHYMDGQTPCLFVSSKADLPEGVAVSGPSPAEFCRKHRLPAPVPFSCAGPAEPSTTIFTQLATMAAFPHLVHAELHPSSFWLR
# No constants are given. Whether binding was seen depends on the method and setting. Some results given as binding are weak or reduced against the parent protein; the word gives no strength. Sequences can lack the tags named with a protein.
# Biological target: T1, LexA-fused C-terminal fragment of Cenp-F (amino acids 2977–3020) (UniProt P49454)
# T1 sequence: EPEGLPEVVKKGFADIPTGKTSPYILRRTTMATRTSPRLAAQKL
# Test: two-hybrid; LexA-Cenp-F bait (pEG202), Miro prey (pJG4-5), yeast EGY48 with lacZ reporter pSH18-34, galactose medium, X-gal overlay
substance,measurement,value
Miro2 (amino acids 1–592) (from UniProt Q8IXI1 1-592) (domain or fragment),binding,binds
